Assay results from article PMC3990709.
These are yes or no findings as the source states them, for the method shown. Some results given as binding are weak or reduced against the parent protein; the word gives no strength.

Chains of the proteins cited; added tags and fusions are not shown.
UniProt Q8I4X0: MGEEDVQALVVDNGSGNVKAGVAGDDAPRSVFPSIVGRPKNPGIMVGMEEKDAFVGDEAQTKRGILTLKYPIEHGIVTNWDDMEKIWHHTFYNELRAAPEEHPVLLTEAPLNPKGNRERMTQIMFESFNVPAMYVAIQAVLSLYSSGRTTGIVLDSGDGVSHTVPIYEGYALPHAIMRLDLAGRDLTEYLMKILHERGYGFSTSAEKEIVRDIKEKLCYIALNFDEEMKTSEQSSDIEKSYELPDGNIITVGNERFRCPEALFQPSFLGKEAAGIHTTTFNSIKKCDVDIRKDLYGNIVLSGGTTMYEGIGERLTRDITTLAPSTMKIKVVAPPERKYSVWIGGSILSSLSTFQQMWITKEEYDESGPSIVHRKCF

Tests used:
[1] = target: Plasmodium falciparum actin I (Plasmodium falciparum) (UniProt Q8I4X0); assay: native gel or EMSA; native PAGE with 1 or 5 mM MgCl2, or 5 mM MgCl2 and 50 mM KCl, in the sample; ATP and ADP forms, 0 and 48 h; both purified
[2] = target: Plasmodium falciparum actin I (Plasmodium falciparum) (UniProt Q8I4X0); assay: native gel or EMSA; native PAGE after 1 h at 298 K without hexokinase and D-glucose (control of the ADP exchange); data not shown; both purified
[3] = target: Plasmodium falciparum actin I (Plasmodium falciparum) (UniProt Q8I4X0); assay: electron microscopy of negatively stained filaments; actin 7–13 µM polymerised overnight at room temperature in polymerisation buffer (50 mM KCl, 2 mM MgCl2, 1 mM ATP final), without JAS; both purified
[4] = target: Plasmodium falciparum actin I (Plasmodium falciparum) (UniProt Q8I4X0); assay: electron microscopy of negatively stained filaments; actin 7–13 µM polymerised overnight at room temperature in polymerisation buffer with 5–7 µM jasplakinolide (JAS); both purified
[5] = target: Plasmodium falciparum actin I (Plasmodium falciparum) (UniProt Q8I4X0); assay: dynamic light scattering; actin I and II at 8.5–24 µM, 298 K, 5 mM HEPES pH 7.5, 0.5 mM ATP, 2 mM DTT, 0.2 mM CaCl2; followed over 48 h at room temperature; both purified
[6] = target: Plasmodium falciparum actin I (Plasmodium falciparum) (UniProt Q8I4X0); assay: cryo-EM structure; actin I filaments in vitreous ice; single-particle based helical reconstruction, 25 Å (FSC 0.5); both purified

Substance: Plasmodium falciparum actin I (from UniProt Q8I4X0 1-376)
- binding [1]: binds
- binding [2]: binds weakly
- binding [3]: binds
- binding [4]: binds
- binding [5]: binds
- binding [6]: binds
